This passage reports binding results from PMC12419896.

No constants are given. Whether binding was seen depends on the method and setting. Binding seen in cells or lysates may run through a third protein.

This assay addresses T1, MEX3B protein (mouse (endogenous in NPCs from CD1 embryos)) (UniProt Q69Z36).
T1 sequence: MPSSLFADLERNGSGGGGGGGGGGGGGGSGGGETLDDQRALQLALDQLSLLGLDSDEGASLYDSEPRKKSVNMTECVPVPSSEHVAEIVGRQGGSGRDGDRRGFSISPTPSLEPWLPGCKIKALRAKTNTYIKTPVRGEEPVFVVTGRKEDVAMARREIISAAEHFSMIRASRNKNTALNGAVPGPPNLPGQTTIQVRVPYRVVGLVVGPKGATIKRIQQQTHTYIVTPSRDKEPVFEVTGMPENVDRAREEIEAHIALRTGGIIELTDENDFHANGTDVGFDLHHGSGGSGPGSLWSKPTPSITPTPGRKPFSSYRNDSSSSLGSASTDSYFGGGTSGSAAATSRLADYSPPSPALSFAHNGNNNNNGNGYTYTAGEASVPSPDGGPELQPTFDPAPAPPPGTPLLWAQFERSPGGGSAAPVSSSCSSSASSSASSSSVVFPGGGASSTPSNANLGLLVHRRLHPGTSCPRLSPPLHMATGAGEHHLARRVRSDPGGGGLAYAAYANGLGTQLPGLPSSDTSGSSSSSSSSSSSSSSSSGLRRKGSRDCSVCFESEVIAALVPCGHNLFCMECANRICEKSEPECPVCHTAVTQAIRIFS
The assay is described as follows: co-IP; endogenous MEX3B immunoprecipitated with MEX3B antibody and Protein-G agarose from lysate of NPCs grown with or without bFGF for 5 days; 20 mM Tris pH 7.5, 100 mM KCl, 5 mM MgCl2, 0.5% Nonidet P-40, 4°C; washes up to 200 mM KCl; IgG control; western blot for REST. For orientation: In western blotting, separated proteins are transferred to a membrane and probed.

B1: REST protein (protein, UniProt Q8VIG1 1-1082)
chain: MATQVMGQSSGGGSLFNNSANMGMALTNDMYDLHELSKAELAAPQLIMLANVALTGEASGSCCDYLVGEERQMAELMPVGDNHFSESEGEGLEESADLKGLENMELGSLELSAVEPQPVFEASAAPEIYSANKDPAPETPVAEDKCRSSKAKPFRCKPCQYEAESEEQFVHHIRIHSAKKFFVEESAEKQAKAWESGSSPAEEGEFSKGPIRCDRCGYNTNRYDHYMAHLKHHLRAGENERIYKCIICTYTTVSEYHWRKHLRNHFPRKVYTCSKCNYFSDRKNNYVQHVRTHTGERPYKCELCPYSSSQKTHLTRHMRTHSGEKPFKCDQCNYVASNQHEVTRHARQVHNGPKPLNCPHCDYKTADRSNFKKHVELHVNPRQFNCPVCDYAASKKCNLQYHFKSKHPTCPSKTMDVSKVKLKKTKKREADLLNNAVSNEKMENEQTKTKGDVSGKKNEKPVKAVGKDASKEKKPGSSVSVVQVTTRTRKSAVAAETKAAEVKHTDGQTGNNPEKPCKAKKNKRKKDAEAHPSEEPVNEGPVTKKKKKSECKSKIGTNVPKGGGRAEERPGVKKQSASLKKGTKKTPPKTKTSKKGGKLAPKGMGQTEPSSGALAQVGVSPDPALIQAEVTGSGSSQTELPSPMDIAKSEPAQMEVSLTGPPPVEPAQMEPSPAKPPQVEAPTYPQPPQRGPAPPTGPAPPTGPAPPTEPAPPTGLAEMEPSPTEPSQKEPPPSMEPPCPEELPQAEPPPMEDCQKELPSPVEPAQIEVAQTAPTQVQEEPPPVSEPPRVKPTKRSSLRKDRAEKELSLLSEMARQEQVLMGVGLVPVRDSKLLKGNKSAQDPPAPPSPSPKGNSREETPKDQEMVSDGEGTIVFPLKKGGPEEAGESPAELAALKESARVSSSEQNSAMPEGGASHSKCQTGSSGLCDVDTEQKTDTVPMKDSAAEPVSPPTPTVDRDAGSPAVVASPPITLAENESQEIDEDEGIHSHDGSDLSDNMSEGSDDSGLHGARPTPPEATSKNGKAGLAGKVTEGEFVCIFCDRSFRKEKDYSKHLNRHLVNVYFLEEAAEEQEEQEEREEQE
Consider B1, for which the binding result is “no binding”.
